# From the supplement of paper PMC6411743
# The chains behind the UniProt entries cited, without tags or fusion partners. Where a name states a change or a piece, a line headed by the entry shows the natural chain unless it says otherwise.
# UniProt O00442: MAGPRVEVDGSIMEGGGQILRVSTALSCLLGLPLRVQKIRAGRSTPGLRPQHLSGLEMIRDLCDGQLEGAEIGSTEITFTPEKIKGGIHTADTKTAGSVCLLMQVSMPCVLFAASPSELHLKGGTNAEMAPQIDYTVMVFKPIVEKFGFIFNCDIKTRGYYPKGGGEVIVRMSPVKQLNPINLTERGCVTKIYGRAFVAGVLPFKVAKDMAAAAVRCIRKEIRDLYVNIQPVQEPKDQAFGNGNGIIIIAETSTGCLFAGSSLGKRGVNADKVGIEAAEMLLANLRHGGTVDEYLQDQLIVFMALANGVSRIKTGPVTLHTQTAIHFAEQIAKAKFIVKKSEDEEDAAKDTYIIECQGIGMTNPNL
# UniProt O60566, whole entry: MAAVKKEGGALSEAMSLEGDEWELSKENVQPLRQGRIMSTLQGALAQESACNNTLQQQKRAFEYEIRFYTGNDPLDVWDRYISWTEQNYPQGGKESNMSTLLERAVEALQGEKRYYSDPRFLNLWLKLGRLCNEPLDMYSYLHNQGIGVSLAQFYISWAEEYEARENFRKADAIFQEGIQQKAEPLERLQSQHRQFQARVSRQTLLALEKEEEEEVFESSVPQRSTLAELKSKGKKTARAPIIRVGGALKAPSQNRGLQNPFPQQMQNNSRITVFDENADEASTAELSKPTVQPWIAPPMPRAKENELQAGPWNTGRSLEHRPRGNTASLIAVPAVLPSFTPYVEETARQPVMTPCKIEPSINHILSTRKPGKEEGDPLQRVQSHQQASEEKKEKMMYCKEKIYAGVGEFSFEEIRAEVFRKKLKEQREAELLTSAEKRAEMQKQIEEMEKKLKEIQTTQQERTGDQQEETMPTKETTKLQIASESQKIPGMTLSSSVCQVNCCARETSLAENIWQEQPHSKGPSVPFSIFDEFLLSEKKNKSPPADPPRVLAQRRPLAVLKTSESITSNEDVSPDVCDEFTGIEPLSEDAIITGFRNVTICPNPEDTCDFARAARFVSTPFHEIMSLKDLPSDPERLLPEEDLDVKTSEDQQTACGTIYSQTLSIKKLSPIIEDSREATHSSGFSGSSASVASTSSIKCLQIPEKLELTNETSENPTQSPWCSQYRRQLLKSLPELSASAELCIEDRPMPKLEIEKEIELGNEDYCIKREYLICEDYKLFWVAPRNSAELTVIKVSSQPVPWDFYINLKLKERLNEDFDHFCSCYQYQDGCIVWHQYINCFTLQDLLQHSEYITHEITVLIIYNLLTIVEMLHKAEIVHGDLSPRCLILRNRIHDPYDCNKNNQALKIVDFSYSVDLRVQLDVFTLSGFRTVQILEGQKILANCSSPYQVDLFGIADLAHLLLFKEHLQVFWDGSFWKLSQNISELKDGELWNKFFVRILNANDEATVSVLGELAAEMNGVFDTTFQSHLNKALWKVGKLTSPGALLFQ
# UniProt O60880: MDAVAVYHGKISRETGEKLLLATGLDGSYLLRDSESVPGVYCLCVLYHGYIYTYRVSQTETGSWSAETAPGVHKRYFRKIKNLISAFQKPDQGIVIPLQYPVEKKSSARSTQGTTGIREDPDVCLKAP
# UniProt O00330, whole entry: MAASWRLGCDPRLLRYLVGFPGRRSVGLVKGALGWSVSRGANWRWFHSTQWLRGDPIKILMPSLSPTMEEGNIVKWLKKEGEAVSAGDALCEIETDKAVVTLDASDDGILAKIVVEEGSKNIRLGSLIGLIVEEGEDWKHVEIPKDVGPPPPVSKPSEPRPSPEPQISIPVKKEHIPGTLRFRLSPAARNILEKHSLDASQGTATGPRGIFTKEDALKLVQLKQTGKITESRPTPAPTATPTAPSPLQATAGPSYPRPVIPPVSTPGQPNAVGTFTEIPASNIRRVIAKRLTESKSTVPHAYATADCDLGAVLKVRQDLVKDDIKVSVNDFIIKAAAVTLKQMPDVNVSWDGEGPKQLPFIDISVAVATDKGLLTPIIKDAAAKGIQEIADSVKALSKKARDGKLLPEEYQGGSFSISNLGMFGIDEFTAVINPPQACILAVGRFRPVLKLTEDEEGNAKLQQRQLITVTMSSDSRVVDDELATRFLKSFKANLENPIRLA
# UniProt O00505, whole entry: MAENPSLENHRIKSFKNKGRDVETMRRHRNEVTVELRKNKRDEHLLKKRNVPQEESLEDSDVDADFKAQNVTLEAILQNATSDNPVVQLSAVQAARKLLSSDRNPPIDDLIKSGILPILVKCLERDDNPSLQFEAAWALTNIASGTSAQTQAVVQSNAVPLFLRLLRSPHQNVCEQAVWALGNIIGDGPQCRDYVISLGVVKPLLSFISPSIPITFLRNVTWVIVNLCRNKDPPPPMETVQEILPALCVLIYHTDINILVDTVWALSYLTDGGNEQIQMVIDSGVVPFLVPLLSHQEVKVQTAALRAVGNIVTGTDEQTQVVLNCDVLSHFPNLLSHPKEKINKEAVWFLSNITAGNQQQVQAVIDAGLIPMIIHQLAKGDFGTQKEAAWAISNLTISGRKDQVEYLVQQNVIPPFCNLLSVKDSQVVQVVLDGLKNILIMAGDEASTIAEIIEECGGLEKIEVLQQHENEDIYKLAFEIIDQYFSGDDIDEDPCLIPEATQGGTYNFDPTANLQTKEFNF
# UniProt O60306: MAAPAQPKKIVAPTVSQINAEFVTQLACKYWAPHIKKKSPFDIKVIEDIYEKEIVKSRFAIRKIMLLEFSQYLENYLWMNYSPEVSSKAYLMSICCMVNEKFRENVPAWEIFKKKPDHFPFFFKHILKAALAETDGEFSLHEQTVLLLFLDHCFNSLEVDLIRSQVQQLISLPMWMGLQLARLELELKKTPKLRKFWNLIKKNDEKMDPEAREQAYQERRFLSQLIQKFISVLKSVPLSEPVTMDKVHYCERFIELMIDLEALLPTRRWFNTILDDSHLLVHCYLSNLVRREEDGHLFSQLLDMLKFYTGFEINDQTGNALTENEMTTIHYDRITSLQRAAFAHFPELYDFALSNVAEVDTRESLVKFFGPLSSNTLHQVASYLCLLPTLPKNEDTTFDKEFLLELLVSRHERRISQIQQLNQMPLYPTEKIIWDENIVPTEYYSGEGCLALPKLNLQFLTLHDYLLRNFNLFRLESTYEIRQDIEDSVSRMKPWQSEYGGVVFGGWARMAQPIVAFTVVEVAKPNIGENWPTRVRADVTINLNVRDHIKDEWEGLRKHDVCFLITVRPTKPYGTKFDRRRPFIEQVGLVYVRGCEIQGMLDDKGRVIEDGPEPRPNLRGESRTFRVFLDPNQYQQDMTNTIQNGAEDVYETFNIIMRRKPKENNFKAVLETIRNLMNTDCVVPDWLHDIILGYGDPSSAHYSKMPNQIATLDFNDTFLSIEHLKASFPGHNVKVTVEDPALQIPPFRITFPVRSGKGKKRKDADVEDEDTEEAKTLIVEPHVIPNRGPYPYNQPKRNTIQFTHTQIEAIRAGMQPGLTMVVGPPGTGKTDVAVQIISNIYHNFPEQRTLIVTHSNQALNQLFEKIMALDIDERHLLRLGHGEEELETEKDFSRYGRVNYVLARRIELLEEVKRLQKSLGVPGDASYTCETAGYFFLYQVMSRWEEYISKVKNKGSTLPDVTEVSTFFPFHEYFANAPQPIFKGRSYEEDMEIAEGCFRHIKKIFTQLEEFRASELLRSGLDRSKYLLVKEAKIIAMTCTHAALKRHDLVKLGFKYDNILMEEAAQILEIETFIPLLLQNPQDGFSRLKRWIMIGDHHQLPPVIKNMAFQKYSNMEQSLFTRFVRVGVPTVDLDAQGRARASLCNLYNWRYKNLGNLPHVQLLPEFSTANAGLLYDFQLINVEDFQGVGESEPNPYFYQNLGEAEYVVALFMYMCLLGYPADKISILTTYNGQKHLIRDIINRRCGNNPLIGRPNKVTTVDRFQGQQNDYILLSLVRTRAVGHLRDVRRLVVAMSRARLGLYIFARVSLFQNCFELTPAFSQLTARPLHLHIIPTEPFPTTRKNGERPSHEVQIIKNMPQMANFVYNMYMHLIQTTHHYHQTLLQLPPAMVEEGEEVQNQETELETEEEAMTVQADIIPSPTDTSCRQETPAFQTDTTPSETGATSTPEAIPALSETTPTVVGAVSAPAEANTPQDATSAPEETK
# UniProt O43660: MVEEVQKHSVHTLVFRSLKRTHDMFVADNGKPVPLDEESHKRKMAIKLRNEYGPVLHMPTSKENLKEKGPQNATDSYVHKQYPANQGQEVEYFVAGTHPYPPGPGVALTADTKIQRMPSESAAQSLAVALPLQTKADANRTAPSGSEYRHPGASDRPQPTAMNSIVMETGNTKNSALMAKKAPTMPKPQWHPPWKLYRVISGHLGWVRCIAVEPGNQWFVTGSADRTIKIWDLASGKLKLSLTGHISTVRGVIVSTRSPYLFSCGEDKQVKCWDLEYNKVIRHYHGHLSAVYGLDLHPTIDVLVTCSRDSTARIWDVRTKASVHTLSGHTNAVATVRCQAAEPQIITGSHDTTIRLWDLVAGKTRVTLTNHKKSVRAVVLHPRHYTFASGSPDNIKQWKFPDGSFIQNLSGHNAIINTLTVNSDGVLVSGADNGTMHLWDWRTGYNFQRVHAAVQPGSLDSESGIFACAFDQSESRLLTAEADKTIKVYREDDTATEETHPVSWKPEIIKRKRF
# UniProt O15541: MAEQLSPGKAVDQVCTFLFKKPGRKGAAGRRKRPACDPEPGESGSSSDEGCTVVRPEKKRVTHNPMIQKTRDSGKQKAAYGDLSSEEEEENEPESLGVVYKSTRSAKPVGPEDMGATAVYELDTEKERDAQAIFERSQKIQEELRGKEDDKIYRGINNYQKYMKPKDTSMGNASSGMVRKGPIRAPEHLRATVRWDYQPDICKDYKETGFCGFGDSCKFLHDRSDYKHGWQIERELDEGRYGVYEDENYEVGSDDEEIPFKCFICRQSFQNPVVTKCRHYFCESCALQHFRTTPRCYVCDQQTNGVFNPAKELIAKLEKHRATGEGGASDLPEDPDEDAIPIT
# UniProt O15400: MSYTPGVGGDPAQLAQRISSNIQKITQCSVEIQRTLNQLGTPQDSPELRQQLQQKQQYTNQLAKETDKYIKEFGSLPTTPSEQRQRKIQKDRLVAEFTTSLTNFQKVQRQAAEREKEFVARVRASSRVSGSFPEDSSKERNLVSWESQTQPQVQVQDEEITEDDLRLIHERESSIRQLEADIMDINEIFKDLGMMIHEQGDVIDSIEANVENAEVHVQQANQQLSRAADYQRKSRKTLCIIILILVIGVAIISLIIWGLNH
# UniProt O15066: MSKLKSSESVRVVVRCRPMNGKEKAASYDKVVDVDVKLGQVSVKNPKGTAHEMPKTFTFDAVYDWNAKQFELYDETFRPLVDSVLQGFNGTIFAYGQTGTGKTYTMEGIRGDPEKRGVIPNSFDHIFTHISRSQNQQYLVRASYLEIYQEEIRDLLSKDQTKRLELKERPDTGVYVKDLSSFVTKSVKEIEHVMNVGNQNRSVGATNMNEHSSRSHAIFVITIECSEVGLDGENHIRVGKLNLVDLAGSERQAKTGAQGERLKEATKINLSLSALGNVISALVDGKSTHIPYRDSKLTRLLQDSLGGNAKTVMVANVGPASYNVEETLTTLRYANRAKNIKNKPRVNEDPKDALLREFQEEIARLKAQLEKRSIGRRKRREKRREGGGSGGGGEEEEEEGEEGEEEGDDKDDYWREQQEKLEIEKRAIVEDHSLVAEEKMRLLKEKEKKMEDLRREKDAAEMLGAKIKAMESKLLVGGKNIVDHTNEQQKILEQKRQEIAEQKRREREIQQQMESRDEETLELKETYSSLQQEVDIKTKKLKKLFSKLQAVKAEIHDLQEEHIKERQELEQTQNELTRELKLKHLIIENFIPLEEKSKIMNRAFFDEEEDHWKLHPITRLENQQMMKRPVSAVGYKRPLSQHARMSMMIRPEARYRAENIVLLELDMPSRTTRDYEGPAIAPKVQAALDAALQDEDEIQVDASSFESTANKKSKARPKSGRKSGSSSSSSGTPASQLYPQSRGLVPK
# UniProt O60506: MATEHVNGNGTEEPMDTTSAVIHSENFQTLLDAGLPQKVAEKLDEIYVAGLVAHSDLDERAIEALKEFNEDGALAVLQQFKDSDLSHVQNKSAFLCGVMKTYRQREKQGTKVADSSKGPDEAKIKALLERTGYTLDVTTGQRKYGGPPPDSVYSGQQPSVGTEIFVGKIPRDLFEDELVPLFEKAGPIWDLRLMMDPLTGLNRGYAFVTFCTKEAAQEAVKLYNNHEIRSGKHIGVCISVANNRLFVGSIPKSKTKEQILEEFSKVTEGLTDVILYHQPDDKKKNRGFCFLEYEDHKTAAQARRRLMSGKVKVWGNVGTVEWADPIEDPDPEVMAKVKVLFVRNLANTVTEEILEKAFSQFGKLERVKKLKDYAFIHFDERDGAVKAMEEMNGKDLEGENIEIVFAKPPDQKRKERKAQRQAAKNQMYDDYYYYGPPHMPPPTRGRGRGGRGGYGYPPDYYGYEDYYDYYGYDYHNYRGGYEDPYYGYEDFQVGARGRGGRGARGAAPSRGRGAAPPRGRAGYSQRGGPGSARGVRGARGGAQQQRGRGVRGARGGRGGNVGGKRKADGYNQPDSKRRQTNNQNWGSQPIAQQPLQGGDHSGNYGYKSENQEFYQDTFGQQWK
# ± gives the standard deviation of the averaged measurements. This is one part of the list.
# Compound: Nc1nc2c(ncn2[C@@H]2O[C@H](COP(=O)(O)OP(=O)(O)OP(=O)(O)O)[C@@H](O)[C@H]2O)c(=O)[nH]1 [guanosine triphosphate]
# Assay: NP40-soluble protein abundance relative to vehicle (solubility fold change) (ratio); higher = more soluble protein in presence of GTP
# Procedure, shortened: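 Each value is a fold change relative to the detergent-processed vehicle, calculated per replicate from vsn-normalised intensities. Jurkat crude lysate received eight concentrations (0.1 to 10 mM) for 10 min at room temperature and 3 min at 37 °C, then was solubilised in 0.8% NP40 with benzonase (60 min, 4 °C). The ultracentrifuged supernatant was TMT-labelled and run by LC-MS/MS in three independent experiments.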
Target,NP40-soluble protein abundance (concentration: 0.1mM),NP40-soluble protein abundance (concentration: 0.5mM),NP40-soluble protein abundance (concentration: 1mM),NP40-soluble protein abundance (concentration: 2mM),NP40-soluble protein abundance (concentration: 4mM),NP40-soluble protein abundance (concentration: 6mM),NP40-soluble protein abundance (concentration: 8mM),NP40-soluble protein abundance (concentration: 10mM)
UniProt O00442 and related entries,1.06 ± 0.046,1.01 ± 0.032,0.97 ± 0.06,0.961 ± 0.049,0.971 ± 0.1,0.924 ± 0.021,0.937 ± 0.1,0.924 ± 0.066
RNF13 (UniProt O43567),0.97 ± 0.08,0.958 ± 0.07,1.03 ± 0.056,0.999 ± 0.094,0.964 ± 0.096,1.04 ± 0.076,1 ± 0.093,0.99 ± 0.065
UniProt O60566 and related entries,0.992 ± 0.049,0.994 ± 0.011,0.944 ± 0.026,0.946 ± 0.02,0.945 ± 0.032,0.941 ± 0.049,0.945 ± 0.028,0.912 ± 0.015
UniProt O60880 and related entries,0.979 ± 0.065,0.949 ± 0.076,1.01 ± 0.1,0.939 ± 0.11,0.955 ± 0.14,0.945 ± 0.14,0.976 ± 0.1,0.927 ± 0.12
UniProt O43172-2|O43172,1.09 ± 0.067,1.15 ± 0.086,1.11 ± 0.059,1.13 ± 0.071,1.15 ± 0.1,1.17 ± 0.11,1.21 ± 0.12,1.18 ± 0.08
TOR1A (UniProt O14656),1 ± 0.052,1.03 ± 0.075,0.93 ± 0.063,0.946 ± 0.031,0.876 ± 0.018,0.903 ± 0.03,0.851 ± 0.024,0.863 ± 0.022
GMDS (UniProt O60547),1.04 ± 0.019,1.06 ± 0.056,0.977 ± 0.012,0.979 ± 0.031,0.964 ± 0.05,0.963 ± 0.031,0.9495 ± 0.0086,0.93 ± 0.029
UniProt O00330 and related entries,1.1 ± 0.079,1.2 ± 0.15,1.34 ± 0.29,1.47 ± 0.34,1.54 ± 0.46,1.58 ± 0.46,1.63 ± 0.54,1.49 ± 0.51
UniProt O43670-2,1.01 ± 0.048,1.08 ± 0.072,1.1 ± 0.013,1.13 ± 0.068,1.12 ± 0.068,1.17 ± 0.079,1.18 ± 0.051,1.22 ± 0.066
KPNA3 (UniProt O00505),0.964 ± 0.042,0.971 ± 0.06,1.01 ± 0.046,1.02 ± 0.052,1.04 ± 0.052,1.01 ± 0.068,1.05 ± 0.046,1.004 ± 0.0059
AQR (UniProt O60306),1.08 ± 0.033,1.09 ± 0.085,1.04 ± 0.052,1.03 ± 0.12,1.04 ± 0.12,1.02 ± 0.15,0.995 ± 0.077,0.957 ± 0.082
PHGDH (UniProt O43175),0.956 ± 0.028,0.947 ± 0.014,0.948 ± 0.026,0.895 ± 0.025,0.904 ± 0.035,0.891 ± 0.022,0.907 ± 0.014,0.879 ± 0.026
PFDN6 (UniProt O15212),0.904 ± 0.071,0.919 ± 0.033,0.951 ± 0.039,0.903 ± 0.046,0.889 ± 0.039,0.933 ± 0.033,0.911 ± 0.084,0.911 ± 0.029
UniProt O43736 and related entries,0.915 ± 0.062,1.01 ± 0.044,0.939 ± 0.05,0.892 ± 0.033,0.96 ± 0.052,0.937 ± 0.079,0.971 ± 0.08,0.982 ± 0.096
UniProt O14646 and related entries,1 ± 0.041,0.968 ± 0.067,0.97 ± 0.14,1.03 ± 0.13,1.08 ± 0.12,1.16 ± 0.14,1.22 ± 0.12,1.41 ± 0.074
PLRG1 (UniProt O43660),1.03 ± 0.047,1.07 ± 0.07,1.02 ± 0.06,1.08 ± 0.074,1.13 ± 0.12,1.17 ± 0.097,1.23 ± 0.12,1.23 ± 0.11
RANBP6 (UniProt O60518),1.02 ± 0.1,1.01 ± 0.055,0.973 ± 0.022,0.965 ± 0.029,1.05 ± 0.02,0.992 ± 0.078,0.9902 ± 0.0074,0.993 ± 0.045
UniProt O14733 and related entries,1 ± 0.011,1.05 ± 0.08,1.01 ± 0.054,1.01 ± 0.03,0.993 ± 0.058,0.955 ± 0.035,0.972 ± 0.041,0.944 ± 0.037
TRAF5 (UniProt O00463),0.998 ± 0.02,1.1 ± 0.019,0.982 ± 0.023,0.998 ± 0.041,0.978 ± 0.037,0.98 ± 0.064,0.951 ± 0.066,0.989 ± 0.04
LANCL1 (UniProt O43813),1.03 ± 0.0069,1.03 ± 0.045,0.924 ± 0.03,0.954 ± 0.065,0.899 ± 0.054,0.907 ± 0.049,0.85 ± 0.04,0.863 ± 0.089
UniProt O15042 and related entries,1 ± 0.011,1.08 ± 0.013,1.15 ± 0.05,1.18 ± 0.094,1.24 ± 0.13,1.32 ± 0.14,1.4 ± 0.22,1.37 ± 0.23
UniProt O00182 and related entries,1.04 ± 0.04,1.05 ± 0.022,0.98 ± 0.011,0.987 ± 0.05,0.996 ± 0.058,0.997 ± 0.039,0.9929 ± 0.0081,0.9652 ± 0.0046
RNF113A (UniProt O15541),0.967 ± 0.028,1 ± 0.051,0.998 ± 0.029,0.947 ± 0.072,0.928 ± 0.07,0.92 ± 0.066,0.899 ± 0.023,0.941 ± 0.077
UniProt O15400 and related entries,0.854 ± 0.013,0.806 ± 0.034,0.908 ± 0.02,0.901 ± 0.049,0.907 ± 0.062,0.962 ± 0.093,0.898 ± 0.14,1.02 ± 0.028
PRPF3 (UniProt O43395),1.06 ± 0.052,1.09 ± 0.081,1.09 ± 0.09,1.12 ± 0.09,1.15 ± 0.12,1.19 ± 0.12,1.22 ± 0.16,1.27 ± 0.18
MRPS14 (UniProt O60783),1.07 ± 0.1,1.06 ± 0.13,1.28 ± 0.19,1.4 ± 0.33,1.48 ± 0.38,1.43 ± 0.38,1.38 ± 0.32,1.48 ± 0.41
KIF3B (UniProt O15066),1.07 ± 0.033,1.02 ± 0.032,1.08 ± 0.045,0.996 ± 0.082,1.04 ± 0.067,1.01 ± 0.025,1.06 ± 0.081,1.05 ± 0.078
UniProt O60506 and related entries,0.955 ± 0.027,1.01 ± 0.027,0.971 ± 0.03,0.999 ± 0.05,1 ± 0.082,1.02 ± 0.066,1.03 ± 0.091,1.01 ± 0.067
GNPAT (UniProt O15228),1.06 ± 0.078,1.05 ± 0.081,0.948 ± 0.03,0.942 ± 0.098,0.913 ± 0.092,0.904 ± 0.061,0.889 ± 0.045,0.819 ± 0.096
POLR1C (UniProt O15160),1 ± 0.056,1.03 ± 0.035,0.971 ± 0.028,1.01 ± 0.024,1.07 ± 0.081,1.04 ± 0.083,1.04 ± 0.058,1.02 ± 0.03

# Given tab-delimited: part of the list above.
Target	NP40-soluble protein abundance (concentration: 0.1mM)	NP40-soluble protein abundance (concentration: 0.5mM)	NP40-soluble protein abundance (concentration: 1mM)	NP40-soluble protein abundance (concentration: 2mM)	NP40-soluble protein abundance (concentration: 4mM)	NP40-soluble protein abundance (concentration: 6mM)	NP40-soluble protein abundance (concentration: 8mM)	NP40-soluble protein abundance (concentration: 10mM)
AQR (UniProt O60306)	1.08 ± 0.033	1.09 ± 0.085	1.04 ± 0.052	1.03 ± 0.12	1.04 ± 0.12	1.02 ± 0.15	0.995 ± 0.077	0.957 ± 0.082
PFDN6 (UniProt O15212)	0.904 ± 0.071	0.919 ± 0.033	0.951 ± 0.039	0.903 ± 0.046	0.889 ± 0.039	0.933 ± 0.033	0.911 ± 0.084	0.911 ± 0.029
